For the assay, the target named is RBD-ACE2 attachment (RBD of viral spike protein and ACE2 receptor) (Severe acute respiratory syndrome coronavirus 2, UniProt P0DTC2). Briefly: cell-based. On the set-up: species or system SARS-CoV-2; human.

Where only a bound is given, the exact number is not on record here.

With `O=C1CCc2ccc(OCCCCN3CCN(c4cccc(Cl)c4Cl)CC3)cc2N1` [Aripiprazole], the EC50 was above 100 µM.

For orientation: EC50 means the concentration giving half of the maximal effect. The low end stands for greater potency, the high end for weaker potency.
